PubChem BioAssay AID504786, Drosophila RNAi Screening Center – 2011
The deposit covers about 21,000 reagents; shown is a random part of those with a known target gene and a result. 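Primary screen; positive scores mean lost reporter signal, so the sign may be inverted from the usual convention.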 Reagents against one gene are numbered here. Not all columns of the deposit are shown. No sequences are given here.

Screen: 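Fly genes required for HIF-dependent transcription when hypoxia is mimicked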 (primary screen)
System: Drosophila S2 cells with a stable HIF luciferase reporter
Reagent: long dsRNA against Drosophila genes, about 0.2 µg dsRNA per well of a 384-well plate
Time to read-out: three days of knock-down, then 20 h of DFO before reading
Treatment: desferrioxamine (DFO) at 100 µM, an iron chelator that mimics hypoxia, for 20 h
Measured: 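HIF reporter luminescence in cells given 100 µM DFO for 20 h, using the mouse ldh-a hypoxia-response element, scored as per-plate z-scores; higher means greater loss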
Direction: z-score: higher = stronger loss of HIF reporter signal

gene | dsRNA no. | z-score, replicate 1
Eglp3 (Entomoglyceroporin 3) | 1 | -0.3
yellow-d | 1 | -0.2
CG18765 | 1 | -0.3
CG31482 | 1 | -0.3
CG7448 (retired record) | 1 | -0.3
CG14221 | 1 | -0.1
CG16753 | 1 | -0.1
CG7556 | 1 | -0.5
CG15130 | 1 | -0.3
Art7 (Arginine methyltransferase 7) | 1 | -0.2
CG31082 (retired record) | 1 | -0.6
lncRNA:CR32553 (long non-coding RNA:CR32553) | 1 | -0.5
comm3 | 1 | -0.3
comm3 | 2 | 0.3
comm3 | 3 | 0.4
Adk1 (Adenosine kinase 1) | 1 | -0.3
Fbp1 (Fat body protein 1) | 1 | 0.3
CG4377 | 1 | -0.3
CG9294 | 1 | -0.2
Cpr72Ea (Cuticular protein 72Ea) | 1 | -0.3
ana1 (anastral spindle 1) | 1 | -0.3
Dop1R1 (Dopamine 1-like receptor 1) | 1 | -0.4
Dop1R1 (Dopamine 1-like receptor 1) | 2 | -0.4
Coop (Corepressor of Pangolin) | 1 | -0.1
CG7246 | 1 | 2.3
Ntl (Neurotransmitter transporter-like) | 1 | -1.1
CG10339 | 1 | 0
Unr (Upstream of N-ras) | 1 | -0.1
CG11125 | 1 | -0.2
Elovl7 (ELOVL fatty acid elongase 7) | 1 | 0
HPS4 (Hermansky-Pudlak Syndrome 4) | 1 | -0.1
CG10019 | 1 | 0.2
Dip-B (Dipeptidase B) | 1 | -0.3
HLH54F | 1 | -0.6
CG11961 | 1 | -0.3
l(2)dtl (lethal-(2)-denticleless) | 1 | 0.3
Tim13 | 1 | -0.3
CG32087 | 1 | -0.2
Ptp99A (Protein tyrosine phosphatase 99A) | 1 | -0.1
Ptp99A (Protein tyrosine phosphatase 99A) | 2 | -0.2
Ptp99A (Protein tyrosine phosphatase 99A) | 3 | -0.6
Ptp99A (Protein tyrosine phosphatase 99A) | 4 | -0.5
Ptp99A (Protein tyrosine phosphatase 99A) | 5 | -0.4
CG34302 | 1 | -0.2
CG9581 | 1 | -0.1
Cnep1r1 (CTD nuclear envelope phosphatase 1 regulatory subunit 1) | 1 | -0.1
CG30393 | 1 | 0
CG17378 | 1 | -0.4
Treh (Trehalase) | 1 | -0.4
TfIIS (RNA polymerase II elongation factor) | 1 | -0.4
Osi16 (Osiris 16) | 1 | -0.2
CG17321 | 1 | -0.4
ath (athos) | 1 | -0.1
tx (retired record) | 1 | 0.1
DNAlig4 (DNA ligase 4) | 1 | -0.1
Taf8 (TBP-associated factor 8) | 1 | -0.1
gish (gilgamesh) | 1 | -0.4
CG5800 | 1 | -0.2
CG32302 | 1 | -0.3
EndoU (Endoribonuclease U-specific) | 1 | -0.2
Ifrd1 (Interferon-related developmental regulator 1) | 1 | 0.5
Ifrd1 (Interferon-related developmental regulator 1) | 2 | 1.4
Cyp9f3 (Cytochrome P450 9f3) | 1 | -0.3
Tnks (tankyrase) | 1 | 0.1
CG10469 | 1 | 0.1
Amph (Amphiphysin) | 1 | -0.3
ppk28 (pickpocket 28) | 1 | -0.2
her (hermaphrodite) | 1 | 0.8
Est-6 (Esterase 6) | 1 | -0.3
Ack (Activated Cdc42 kinase) | 1 | -0.4
CG5938 | 1 | -0.3
CG14355 | 1 | -0.3
Cpr47Ea (Cuticular protein 47Ea) | 1 | -0.4
stil (stand still) | 1 | -0.3
Cdc50 (Cell division cycle 50) | 1 | -0.2
CG6126 | 1 | -0.3
CG31233 | 1 | 0.6
ste24a (prenyl protease type I) | 1 | 0.4
CatB (Catalase B) | 1 | -0.4
CycH (Cyclin H) | 1 | -0.3
CG7879 | 1 | -0.2
CG14374 | 1 | -0.2
Klp61F (Kinesin-like protein at 61F) | 1 | 1.8

As entered above:
CG17321, z-score, replicate 1 → -0.4
CatB (Catalase B), z-score, replicate 1 = -0.4
Value of CG5800 in “z-score, replicate 1”: -0.2
Value of Cyp9f3 (Cytochrome P450 9f3) in “z-score, replicate 1”: -0.3
Under “z-score, replicate 1”, comm3 #2 is entered as 0.3
Under “z-score, replicate 1”, Elovl7 (ELOVL fatty acid elongase 7) reads 0
